Measured values as given in US20250296961A1 (The University of Hong Kong, priority 2021, published 2025).
Where a sequence shows no end group, the ends are not given.

Assay: peptide made by a vendor (Fmoc solid-phase peptide synthesis)
Conditions: whole synthesis

TFFRLFNRAKRHHGYKRKFHSpSp
outcome: could not be synthesized due to the weak stability during fabrication
